Values from PubChem BioAssay AID652259 (Drosophila RNAi Screening Center, 2013).

Screen: 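Knock-downs that push a Wingless-driven reporter up or down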 (primary screen)
Cells: Drosophila clone 8 imaginal disc epithelial cells
Reagents: long dsRNA against Drosophila genes
Challenge: pathway stimulated by co-transfected Wingless expression plasmid
Detection: 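Dual luciferase reads per well after Wingless plasmid stimulation: reporter firefly light and Renilla control light; activity is firefly divided by Renilla, a ratio not deposited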
Scale: firefly reporter light: higher = more Wg reporter light, before normalisation; Renilla control light: higher = more transfected or surviving cells
Hit rule: 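Strong candidates differ from their plate mean by at least two out of four per-plate statistical tests; weak candidates meet just one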
Meaning of the calls: active = candidate regulator (raises or lowers reporter); inactive = not a candidate
The screen tested about 22,000 reagents; shown is an unselected part of those with a known target gene and a result. Over the whole deposit, 233 (1.1%) were called active. 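Light values are raw, unnormalised plate reads; the ratio scores behind the reporter calls were not deposited.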 A number with no mark means an inactive call. Not stated in the record: the amount of reagent, the time to read-out, the dose of the treatment.

Gene | amplicon | firefly reporter light, replicate 1 | firefly reporter light, replicate 2 | Renilla control light, replicate 1 | Renilla control light, replicate 2
sqh (GeneID 31554) | DRSC18837 | 3021 | 7083 | 881 | 1652
fsd (GeneID 36463) | DRSC06166 | 6070 | – | 2633 | –
Hdc (GeneID 36076) | DRSC07439 | 7697 | – | 2800 | –
PrBP (GeneID 34196) | DRSC03189 | 1830 | 4489 | 1081 | 2866
CG14615 (GeneID 33129) | DRSC20627 | 12003 | – | 7872 | –
lncRNA:CR43270 (GeneID 12798463) | DRSC11575 | 3453 | – | 1313 | –
CG17169 (GeneID 3354995) | DRSC20905 | 16947 | – | 8467 | –
l(2)37Bb (GeneID 49427) | DRSC02088 | 3011 | 11088 | 843 | 4148
Flo2 (GeneID 32425) | DRSC19062 | 3652 | – | 1361 | –
Flo2 (GeneID 32425) | DRSC20244 | 20839 | – | 12960 | –
Taf5 (GeneID 47900) | DRSC07562 | 22013 | – | 2893 | –
Shc (GeneID 44052) | DRSC11284 | 4787 | – | 2037 | –
CG30273 (GeneID 246520) | DRSC22059 | 4.78e5 | 4.96e5 | 1.60e5 | 1.56e5
CG17544 (GeneID 35213) | DRSC02624 | 6932 | – | 2568 | –
beat-VII (GeneID 43213) | DRSC13780 | 5788 | – | 2491 | –
beat-VII (GeneID 43213) | DRSC14743 | 6948 | – | 3106 | –
beat-VII (GeneID 43213) | DRSC14744 | 8221 | – | 2645 | –
beat-VII (GeneID 43213) | DRSC22825 | 4.88e5 | 5.21e5 | 2.14e5 | 2.91e5
ras (GeneID 43873) | DRSC18825 | 4941 | 5736 | 1149 | 2044

Part of the list above, reduced to “firefly reporter light, replicate 1”.
l(2)37Bb (GeneID 49427) [DRSC02088]	3011
Flo2 (GeneID 32425) [DRSC19062]	3652
Flo2 (GeneID 32425) [DRSC20244]	20839

Additional records follow:
Gene | amplicon | firefly reporter light, replicate 1 | firefly reporter light, replicate 2 | Renilla control light, replicate 1 | Renilla control light, replicate 2
kuz (GeneID 34772) | DRSC03555 | 5457 | 5666 | 1008 | 2017
CheB42b (GeneID 2768717) | DRSC22878 | 5.58e5 | 6.49e5 | 2.23e5 | 1.87e5
CG5614 (GeneID 41906) | DRSC15845 | 20467 | – | 2937 | –
CG13693 (GeneID 33187) | DRSC00362 | 3341 | 7352 | 1586 | 3717
CG14687 (GeneID 41297) | DRSC14910 | 22217 | 9.04e5 | 5666 | 3.81e5
CG1638 (GeneID 43721) | DRSC15132 | 22938 | – | 8601 | –
psd (GeneID 33830) | DRSC03131 | 3443 | 8957 | 1040 | 2818
HIPP1 (GeneID 40302) | DRSC11748 | 2349 | – | 1256 | –
CG6933 (GeneID 40214) | DRSC10751 | 4615 | – | 1845 | –
mod (GeneID 43764) | DRSC16999 | 1728 | 5175 | 1008 | 2123
